According to patent publication US11420949B2, “Cystine diamide analogs for the prevention of cystine stone formation in cystinuria” (Rutgers, The State University of New Jersey, priority 2013, dated 2022):
Some entries share one result that the patent states for a list of compounds.

Experiment: Fluorescence assay for inhibition of L-cystine crystal formation (aqueous solubility of L-cystine, OPA/NBC)
Assay type: physicochemical
Details: at increasing the aqueous solubility of L-cystine
Protocol: As used herein, the EC2x's are the concentrations required of the candidate compounds to double the aqueous solubility of cystine and were determined to assess drug potency and potential dosing regimens for in vivo use. One of ordinary skill in the art is readily able to ascertain such information using commonly known methodologies.
Another aspect of the present invention is directed to the processes of determining the concentration of L-cystine using a fluorescence assay after OPA/NBC derivatization. In at least one embodiment with respect to this aspect of the invention, the concentration of the L-cystine was assessed by a fluorescence assay. Accordingly, the inventors developed a fluorescence-based assay using O-phthaldialdehyde (OPA) and N-Boc-cysteine (NBC) to accurately measure the concentration of L-cystine in aqueous solutions using a similar protocol we previously reported. OPA/NBC are popular reagents used for precolumn derivatization of amino acids in HPLC. […] However, the reaction of OPA with the disulfide cystine and NBC yielded derivatives with weak fluorescence. The disulfide in cystine was reduced and then alkylated with iodoacetic acid to form S-carboxymethylcysteine, which yielded OPA/NBS derivatives with normal fluorescence. […] The final mixture was pipetted into 384-well plate and the fluorescence intensity was read at Ex 340 nm/Em 460 nm. […]

| SMILES | fold increase in potency/activity as compared to CDME |
| --- | --- |
| N[C@@H](CSSC[C@H](N)C(=O)N1CCOCC1)C(=O)N1CCOCC1 [LH707] | 7-24 fold |
| CN1CCN(C(=O)[C@@H](N)CSSC[C@H](N)C(=O)N2CCN(C)CC2)CC1 [LH708, L-Cystine bis(N′-methylpiperazide)] | 7-24 fold |
